# Laboratory results as given in PubChem BioAssay AID2685 (National Center for Advancing Translational Sciences (NCATS), 2010).
# The list shows a part of the results. Further columns of the screen follow, without active or inactive calls. Compounds called inactive in the main read-out are mostly missing here. Words in brackets tell the shape of the fitted curve; partial curves, single points and poor fits give uncertain potencies.
# Test: qHTS Assay for Lipid Storage Modulators in Drosophila S3 Cells;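 as to cell number change: cells counted by Cell Tracker Red CMTPX staining in the red channel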
# Details: BODIPY lipid droplet fluorescence, 18-24 h; for cell number change: measured here: cell count max response, cells fed with added oleic acid
# In short: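 Drosophila S3 cells loaded with oleic acid (400 uM, as added) and compounds at several concentrations; lipid droplets imaged by 488-nm laser-scanning cytometry, 500–530 nm intensity and object ratio to cell channel. Percent activity normalized to 20 uM Triacsin C.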
# [1] = measured here: lipid fluorescence (Fed channel) AC50, cells fed with added oleic acid
# [2] = measured here: cell number channel AC50, cells fed with added oleic acid
SMILES,cell number change [%],AC50 [1],AC50 [2]
Cc1ccccc1NC(=O)CNC(=O)Cc1cccc2ccccc12,-9.01,"29.1 µM [falling, single point]",–
O=C(Cc1ccc([N+](=O)[O-])cc1)N1CCN=C1SCc1ccccc1,9.58,"0.82 µM [rising, single point]",–
Clc1ccc(-c2nc3ccccc3nc2-c2ccccc2)cc1,1.93,"2.59 µM [rising, partial curve]",–
COc1ccc([C@H]2CC(=O)C=C(c3ccc(-c4ccccc4)cc3)C2)cc1OC,-14.1,"7.31 µM [falling, partial curve]",–
Cc1cc(C2(c3ccc(O)c(C)c3)C(=O)Nc3ccccc32)ccc1O,-61.1,"16.4 µM [falling, single point]","13 µM [falling, partial curve]"
Cc1cc2nc(C(C)(C)C)cc(N)n2n1,-1.29,"0.82 µM [falling, full curve]","1.03 µM [falling, full curve]"
O=C(CSc1nnc(NC(=O)c2ccco2)s1)NC1CCCC1,60.4,–,"18.4 µM [rising, partial curve]"
O=C(N1CCOCC1)N1CCN(S(=O)(=O)c2cccc([N+](=O)[O-])c2)CC1,-15.3,"0.651 µM [falling, partial curve, poor fit]",–
O=C(CCSc1ccccc1)N1CCCC1,33.2,"3.66 µM [falling, full curve, poor fit]","32.6 µM [rising, single point]"
O=C(COc1ccccc1)NC1CCSc2ccccc21 (stereo not drawn),76.5,–,"29.1 µM [rising, single point]"
CCOC(=O)c1c(N)sc2c1CCC(CC)C2 (stereo not drawn),0.483,"0.13 µM [falling, full curve, poor fit]",–
Cc1ccc(N(C(=O)c2csnn2)C(C(=O)NC2CCCCC2)c2ccco2)cc1 (stereo not drawn),3.85,–,–
Cc1cc(NC(=O)C(C)Sc2nc(-c3ccccc3)cc(=O)[nH]2)no1 (stereo not drawn),-7.69,"8.2 µM [rising, partial curve]",–
CCCCNC(=O)c1cc(S(=O)(=O)N2CCCCC2)oc1C,52.1,"29.1 µM [rising, single point]","29.1 µM [rising, single point]"
CN(CC(=O)Nc1ccc(Cl)c(C(F)(F)F)c1)C(=O)C1(c2ccccc2)CC1,20.8,"2.31 µM [rising, partial curve]","0.82 µM [rising, full curve, poor fit]"
CCN(CC)S(=O)(=O)c1ccc2nc(COC(=O)c3n[nH]c4ccccc34)[nH]c2c1,-8.8,"6.51 µM [rising, single point]",–
CCn1c(C)nc2cc(C(=O)N/N=C/c3ccccc3)ccc21,-8.45,–,"0.231 µM [rising, full curve]"
Cc1ccc(SCC(=O)Nc2ccc(N3CCOCC3)cc2)cc1,–,"20.6 µM [falling, single point]",–
O=C(NC1CCCCC1)C(c1ccc(O)c(O)c1)N(C(=O)Cn1nnc2ccccc21)c1cccc(O)c1 (stereo not drawn),-9.51,–,–
COc1cccc(Cn2ncc3c4sc(Br)cc4n(C)c3c2=O)c1,48.9,"0.116 µM [rising, full curve, poor fit]","36.6 µM [rising, single point]"
Cc1cc(C)cc(Oc2nc3ccccn3c(=O)c2/C=C(\C#N)C(=O)NC2CCS(=O)(=O)C2)c1 (stereo not drawn),3.1,"0.092 µM [rising, full curve, poor fit]",–
CN1CCCc2cc3c(C(F)(F)F)cc(=O)oc3nc21,–,–,"6.51 µM [rising, single point]"
O=C(Nc1cccc(S(=O)(=O)N2CCOCC2)c1)C1CCCC1,-6.27,"0.00461 µM [rising, full curve, poor fit]","0.00517 µM [rising, full curve, poor fit]"
COc1ccc(N2CCN(S(=O)(=O)c3ccc(-c4cc(C)no4)s3)CC2)cc1,–,"29.1 µM [falling, single point]",–
CCOc1ccc2[nH]c(C)c(CN3CCN(C)CC3)c(=O)c2c1,-22.9,–,"0.164 µM [falling, full curve, poor fit]"
FC(F)(F)c1cccc(-c2cc3ccccc3nc2N2CCCC2)c1,-54.1,"29.1 µM [falling, single point]","9.2 µM [falling, single point]"
Cn1c(=O)c(=O)n(C)c2cc(N3CCCCC3)c(NS(=O)(=O)c3ccc(Br)cc3)cc21,-25.1,"6.51 µM [falling, partial curve]","1.16 µM [falling, full curve]"
C/C=C/Cn1c(N2CCCCCC2)nc2c1c(=O)[nH]c(=O)n2C,18.2,–,"0.00461 µM [rising, full curve, poor fit]"

# Entries listed so far that have a carbonyl joined to an NH by a bond outside any ring (twelve):
SMILES,cell number change [%],AC50 [1],AC50 [2]
Cc1ccccc1NC(=O)CNC(=O)Cc1cccc2ccccc12,-9.01,"29.1 µM [falling, single point]",–
O=C(CSc1nnc(NC(=O)c2ccco2)s1)NC1CCCC1,60.4,–,"18.4 µM [rising, partial curve]"
O=C(COc1ccccc1)NC1CCSc2ccccc21 (stereo not drawn),76.5,–,"29.1 µM [rising, single point]"
Cc1ccc(N(C(=O)c2csnn2)C(C(=O)NC2CCCCC2)c2ccco2)cc1 (stereo not drawn),3.85,–,–
Cc1cc(NC(=O)C(C)Sc2nc(-c3ccccc3)cc(=O)[nH]2)no1 (stereo not drawn),-7.69,"8.2 µM [rising, partial curve]",–
CCCCNC(=O)c1cc(S(=O)(=O)N2CCCCC2)oc1C,52.1,"29.1 µM [rising, single point]","29.1 µM [rising, single point]"
CN(CC(=O)Nc1ccc(Cl)c(C(F)(F)F)c1)C(=O)C1(c2ccccc2)CC1,20.8,"2.31 µM [rising, partial curve]","0.82 µM [rising, full curve, poor fit]"
CCn1c(C)nc2cc(C(=O)N/N=C/c3ccccc3)ccc21,-8.45,–,"0.231 µM [rising, full curve]"
Cc1ccc(SCC(=O)Nc2ccc(N3CCOCC3)cc2)cc1,–,"20.6 µM [falling, single point]",–
O=C(NC1CCCCC1)C(c1ccc(O)c(O)c1)N(C(=O)Cn1nnc2ccccc21)c1cccc(O)c1 (stereo not drawn),-9.51,–,–
Cc1cc(C)cc(Oc2nc3ccccn3c(=O)c2/C=C(\C#N)C(=O)NC2CCS(=O)(=O)C2)c1 (stereo not drawn),3.1,"0.092 µM [rising, full curve, poor fit]",–
O=C(Nc1cccc(S(=O)(=O)N2CCOCC2)c1)C1CCCC1,-6.27,"0.00461 µM [rising, full curve, poor fit]","0.00517 µM [rising, full curve, poor fit]"

# The list continues:

SMILES,cell number change [%],AC50 [1],AC50 [2]
COc1ccc(NC(=O)COC(=O)COc2ccc(Br)cc2)cc1,-66.1,"0.116 µM [falling, full curve, poor fit]","0.116 µM [falling, full curve, poor fit]"
CCOc1ccccc1C(=O)Nc1cc(=O)n(C)c(=O)n1C,-16.5,–,–
CCOC(=O)c1c(CC(C)C)csc1/N=C/C1=C(O)CCCC1=O,-27.8,"29.1 µM [falling, single point]",–
Cc1cccc(NC(=O)CSc2nnc(NC(=O)c3ccc(S(=O)(=O)N4CCOCC4)cc3)s2)c1C,-2.12,"29.1 µM [rising, single point]",–
COc1cccc(N2CCN(C(=S)Nc3ccccc3OC)CC2)c1,26.3,"0.13 µM [rising, full curve, poor fit]",–
COc1ccccc1N1CCN(C(=O)C2CCN(C(=O)c3ccc(C(C)(C)C)cc3)CC2)CC1,3.66,–,"2.91 µM [rising, single point]"
Cc1cc(C)cc(NS(=O)(=O)c2ccc(NC(=S)NC(=O)c3ccc(Br)o3)cc2)c1,-16.5,–,"0.231 µM [rising, full curve, poor fit]"
COc1ccccc1OCC(=O)N(Cc1nc(-c2ccccc2)no1)C1CCCCC1,-0.539,–,–
Cc1cc(-c2nnc(SCC(=O)Nc3nc(-c4ccc(Cl)cc4)cs3)o2)no1,-29.9,"20.6 µM [falling, single point]",–
O=S(=O)(NCc1ccccc1)c1cccc2nonc12,-3.78,"0.146 µM [falling, full curve, poor fit]","6.51 µM [falling, single point]"
COc1cc(O)c(CC=C(C)C)c(O)c1C(=O)CCc1ccc(O)cc1,-67,"20.6 µM [falling, single point]","20.6 µM [falling, single point]"
O=C(Nc1ccc2c(c1)OCO2)c1ccc[n+]([O-])c1,45.4,–,"4.11 µM [rising, full curve]"
CN1CCN(c2nc(-c3ccccc3)nc3c2oc2ccccc23)CC1,23.2,"7.31 µM [rising, partial curve, poor fit]",–
CCNC(=S)N(Cc1cccs1)Cc1cc2cc(OCC)ccc2[nH]c1=O,-3.81,"1.16 µM [falling, single point]",–
COC(=O)C1=CN(c2cccc(Cl)c2)C=C(C(=O)OC)C1c1cccc(OC)c1,33.4,"29.1 µM [rising, single point]","16.4 µM [rising, single point]"
CC(C)OC(=O)CSc1nnc2c3ccccc3n(C)c2n1,4.77,"0.366 µM [falling, full curve]","0.103 µM [falling, full curve, poor fit]"
CCC1(C)Cc2ccccc2-c2c1c(=O)n(-c1ccc(C)cc1)c1nnnn21 (stereo not drawn),20.7,"20.6 µM [falling, single point]",–
COc1ccc(C)cc1NC(=O)COC(C)=O,-34.9,–,–
CCn1c(=O)n(CC)c2cc(N3CCCC3)c(NC(=O)c3ccc(F)cc3)cc21,-6.42,"0.731 µM [falling, single point]",–
CCC(C)NC(=O)Cn1cccc1C(=O)c1ccccc1 (stereo not drawn),-18.8,–,"0.651 µM [falling, full curve, poor fit]"
CN(C)c1nc(OCCOC(=O)Nc2ccc(Cl)cc2Cl)nc(N(C)C)n1,63.1,"3.66 µM [rising, full curve]","11.6 µM [rising, partial curve, poor fit]"
CC(CCCC(C)(C)O)NCCO (stereo not drawn),12.5,–,–
N/C(COc1cc(Cl)cc(Cl)c1)=N\O,28.9,"0.731 µM [rising, single point]","0.651 µM [rising, full curve, poor fit]"
CCOC(=O)N1CCC(N2C(=O)c3ccc(C(=O)Nc4ccc(OC)c(OC)c4)cc3C2=O)CC1,–,"6.51 µM [falling, single point]",–
O=C(CN1CCN(C(=O)c2ccccc2F)CC1)Nc1ccc(Br)cc1,98.7,"6.51 µM [rising, single point]","14.6 µM [rising, partial curve]"
O=C(COC(=O)c1ccc(F)c(S(=O)(=O)N2CCOCC2)c1)NCc1ccco1,3.52,"6.51 µM [falling, single point]","0.0259 µM [rising, full curve, poor fit]"
COc1ccc(C2C(C(C)=O)=C(O)C(=O)N2c2ccccn2)cc1 (stereo not drawn),-29.2,–,"0.0206 µM [falling, full curve]"

# 2 successive compounds already listed:
SMILES,cell number change [%],AC50 [1],AC50 [2]
CN1CCN(c2nc(-c3ccccc3)nc3c2oc2ccccc23)CC1,23.2,"7.31 µM [rising, partial curve, poor fit]",–
CCNC(=S)N(Cc1cccs1)Cc1cc2cc(OCC)ccc2[nH]c1=O,-3.81,"1.16 µM [falling, single point]",–
